This is an account of results in article PMC11421798, “Subfunctionalization of NRC3 altered the genetic structure of the Nicotiana NRC network” (PLOS Genetics, 2024).

Test [1] addresses T1, NRC3 variant … (NbNRC3c with six residues of SlNRC3a), myc-tagged (N. benthamiana).
T1 sequence: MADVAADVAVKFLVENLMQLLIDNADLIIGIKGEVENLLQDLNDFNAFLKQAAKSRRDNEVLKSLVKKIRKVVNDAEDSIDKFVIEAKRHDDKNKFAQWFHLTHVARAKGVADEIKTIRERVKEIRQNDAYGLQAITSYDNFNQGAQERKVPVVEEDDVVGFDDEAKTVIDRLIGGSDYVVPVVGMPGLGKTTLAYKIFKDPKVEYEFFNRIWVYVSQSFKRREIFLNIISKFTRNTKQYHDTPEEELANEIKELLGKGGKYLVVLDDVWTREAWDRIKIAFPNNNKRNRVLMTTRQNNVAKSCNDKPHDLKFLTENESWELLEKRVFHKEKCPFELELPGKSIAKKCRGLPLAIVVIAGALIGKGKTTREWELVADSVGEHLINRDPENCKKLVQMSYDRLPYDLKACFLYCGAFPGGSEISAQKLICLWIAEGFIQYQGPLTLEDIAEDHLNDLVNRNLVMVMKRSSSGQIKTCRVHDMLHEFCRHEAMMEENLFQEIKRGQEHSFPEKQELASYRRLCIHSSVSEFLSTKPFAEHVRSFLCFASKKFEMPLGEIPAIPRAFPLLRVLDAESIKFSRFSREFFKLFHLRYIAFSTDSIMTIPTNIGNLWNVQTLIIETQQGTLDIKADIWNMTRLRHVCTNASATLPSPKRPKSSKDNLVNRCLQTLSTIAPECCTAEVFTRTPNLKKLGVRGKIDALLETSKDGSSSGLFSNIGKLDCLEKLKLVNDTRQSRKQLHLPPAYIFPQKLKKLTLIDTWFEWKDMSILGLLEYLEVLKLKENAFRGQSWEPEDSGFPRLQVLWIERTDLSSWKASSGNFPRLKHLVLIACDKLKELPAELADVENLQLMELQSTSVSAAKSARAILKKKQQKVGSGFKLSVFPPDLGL
In words: co-IP; RFP-Rpi-blb2 and NRC3s-myc co-expressed in N. benthamiana; leaves at 30 hpi; anti-c-myc beads, 4°C 3 h; five washes (10% glycerol, 25 mM Tris pH7.5, 1 mM EDTA, 150 mM NaCl, 0.2% IGEPAL); blots with α-RFP and α-myc.

The target in test [2] is T2, N. benthamiana NRC3 (NbNRC3c), myc-tagged (N. benthamiana).
T2 sequence: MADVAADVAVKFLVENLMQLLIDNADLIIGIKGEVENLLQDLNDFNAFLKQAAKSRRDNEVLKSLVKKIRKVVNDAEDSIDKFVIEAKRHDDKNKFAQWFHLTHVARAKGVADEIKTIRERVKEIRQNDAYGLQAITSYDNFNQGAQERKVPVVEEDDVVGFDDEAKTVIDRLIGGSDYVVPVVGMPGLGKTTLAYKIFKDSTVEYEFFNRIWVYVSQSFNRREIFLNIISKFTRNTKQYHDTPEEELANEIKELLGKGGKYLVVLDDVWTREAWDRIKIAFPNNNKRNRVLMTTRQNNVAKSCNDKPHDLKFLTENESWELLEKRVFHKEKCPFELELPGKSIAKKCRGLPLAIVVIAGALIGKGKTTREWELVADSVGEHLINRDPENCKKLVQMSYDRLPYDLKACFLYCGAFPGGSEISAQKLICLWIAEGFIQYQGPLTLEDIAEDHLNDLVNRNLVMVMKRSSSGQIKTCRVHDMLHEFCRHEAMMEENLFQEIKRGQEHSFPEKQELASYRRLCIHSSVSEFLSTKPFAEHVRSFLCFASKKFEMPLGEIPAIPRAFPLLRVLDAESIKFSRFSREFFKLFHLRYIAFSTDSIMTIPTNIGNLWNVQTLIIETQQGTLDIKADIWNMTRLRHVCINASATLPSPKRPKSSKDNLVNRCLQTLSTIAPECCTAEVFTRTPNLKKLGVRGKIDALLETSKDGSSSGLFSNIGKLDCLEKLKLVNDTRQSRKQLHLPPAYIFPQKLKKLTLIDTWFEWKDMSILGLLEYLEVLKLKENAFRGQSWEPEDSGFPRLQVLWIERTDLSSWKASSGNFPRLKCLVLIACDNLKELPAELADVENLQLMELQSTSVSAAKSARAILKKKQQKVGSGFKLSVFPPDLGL
The test is described as above.

Test [3] addresses RFP-Rpi-blb2. In words: co-IP; RFP-Rpi-blb2 and NRC3s-myc co-expressed in N. benthamiana with or without Flag-AVRblb2; leaves at 30 hpi; RFP-Trap magnetic agarose, 4°C 3 h; five washes (10% glycerol, 25 mM Tris pH7.5, 1 mM EDTA, 150 mM NaCl, 0.2% IGEPAL); blots with α-RFP and α-myc.

These are yes or no findings as the source states them, for the method shown. In cells and extracts the contact can be indirect. Binding can be weak; no strength is given. Tags and fused reporters may be left off the sequences shown.

For the molecule RFP-Rpi-blb2, the binding result in test [1] and in test [2] was “binds weakly” in each case.

B1: N. benthamiana NRC3 (NbNRC3c), myc-tagged (protein, UniProt A0A5J6DCA3 1-888)
chain: MADVAADVAVKFLVENLMQLLIDNADLIIGIKGEVENLLQDLNDFNAFLKQAAKSRRDNEVLKSLVKKIRKVVNDAEDSIDKFVIEAKRHDDKNKFAQWFHLTHVARAKGVADEIKTIRERVKEIRQNDAYGLQAITSYDNFNQGAQERKVPVVEEDDVVGFDDEAKTVIDRLIGGSDYVVPVVGMPGLGKTTLAYKIFKDSTVEYEFFNRIWVYVSQSFNRREIFLNIISKFTRNTKQYHDTPEEELANEIKELLGKGGKYLVVLDDVWTREAWDRIKIAFPNNNKRNRVLMTTRQNNVAKSCNDKPHDLKFLTENESWELLEKRVFHKEKCPFELELPGKSIAKKCRGLPLAIVVIAGALIGKGKTTREWELVADSVGEHLINRDPENCKKLVQMSYDRLPYDLKACFLYCGAFPGGSEISAQKLICLWIAEGFIQYQGPLTLEDIAEDHLNDLVNRNLVMVMKRSSSGQIKTCRVHDMLHEFCRHEAMMEENLFQEIKRGQEHSFPEKQELASYRRLCIHSSVSEFLSTKPFAEHVRSFLCFASKKFEMPLGEIPAIPRAFPLLRVLDAESIKFSRFSREFFKLFHLRYIAFSTDSIMTIPTNIGNLWNVQTLIIETQQGTLDIKADIWNMTRLRHVCINASATLPSPKRPKSSKDNLVNRCLQTLSTIAPECCTAEVFTRTPNLKKLGVRGKIDALLETSKDGSSSGLFSNIGKLDCLEKLKLVNDTRQSRKQLHLPPAYIFPQKLKKLTLIDTWFEWKDMSILGLLEYLEVLKLKENAFRGQSWEPEDSGFPRLQVLWIERTDLSSWKASSGNFPRLKCLVLIACDNLKELPAELADVENLQLMELQSTSVSAAKSARAILKKKQQKVGSGFKLSVFPPDLGL
In the case of B1, the binding result in test [3] was “binds weakly”.

B2: NRC3 variant … (NbNRC3c with six residues of SlNRC3a), myc-tagged (protein, UniProt A0A5J6DCA3 1-888)
chain: MADVAADVAVKFLVENLMQLLIDNADLIIGIKGEVENLLQDLNDFNAFLKQAAKSRRDNEVLKSLVKKIRKVVNDAEDSIDKFVIEAKRHDDKNKFAQWFHLTHVARAKGVADEIKTIRERVKEIRQNDAYGLQAITSYDNFNQGAQERKVPVVEEDDVVGFDDEAKTVIDRLIGGSDYVVPVVGMPGLGKTTLAYKIFKDPKVEYEFFNRIWVYVSQSFKRREIFLNIISKFTRNTKQYHDTPEEELANEIKELLGKGGKYLVVLDDVWTREAWDRIKIAFPNNNKRNRVLMTTRQNNVAKSCNDKPHDLKFLTENESWELLEKRVFHKEKCPFELELPGKSIAKKCRGLPLAIVVIAGALIGKGKTTREWELVADSVGEHLINRDPENCKKLVQMSYDRLPYDLKACFLYCGAFPGGSEISAQKLICLWIAEGFIQYQGPLTLEDIAEDHLNDLVNRNLVMVMKRSSSGQIKTCRVHDMLHEFCRHEAMMEENLFQEIKRGQEHSFPEKQELASYRRLCIHSSVSEFLSTKPFAEHVRSFLCFASKKFEMPLGEIPAIPRAFPLLRVLDAESIKFSRFSREFFKLFHLRYIAFSTDSIMTIPTNIGNLWNVQTLIIETQQGTLDIKADIWNMTRLRHVCTNASATLPSPKRPKSSKDNLVNRCLQTLSTIAPECCTAEVFTRTPNLKKLGVRGKIDALLETSKDGSSSGLFSNIGKLDCLEKLKLVNDTRQSRKQLHLPPAYIFPQKLKKLTLIDTWFEWKDMSILGLLEYLEVLKLKENAFRGQSWEPEDSGFPRLQVLWIERTDLSSWKASSGNFPRLKHLVLIACDKLKELPAELADVENLQLMELQSTSVSAAKSARAILKKKQQKVGSGFKLSVFPPDLGL
As to B2, in test [3], the binding entry is “binds weakly”.
